## Library screen at single concentrations

Sequences of proteins named here, by UniProt entry; tags and fusion partners are left off.
UniProt I6X8D2, whole entry: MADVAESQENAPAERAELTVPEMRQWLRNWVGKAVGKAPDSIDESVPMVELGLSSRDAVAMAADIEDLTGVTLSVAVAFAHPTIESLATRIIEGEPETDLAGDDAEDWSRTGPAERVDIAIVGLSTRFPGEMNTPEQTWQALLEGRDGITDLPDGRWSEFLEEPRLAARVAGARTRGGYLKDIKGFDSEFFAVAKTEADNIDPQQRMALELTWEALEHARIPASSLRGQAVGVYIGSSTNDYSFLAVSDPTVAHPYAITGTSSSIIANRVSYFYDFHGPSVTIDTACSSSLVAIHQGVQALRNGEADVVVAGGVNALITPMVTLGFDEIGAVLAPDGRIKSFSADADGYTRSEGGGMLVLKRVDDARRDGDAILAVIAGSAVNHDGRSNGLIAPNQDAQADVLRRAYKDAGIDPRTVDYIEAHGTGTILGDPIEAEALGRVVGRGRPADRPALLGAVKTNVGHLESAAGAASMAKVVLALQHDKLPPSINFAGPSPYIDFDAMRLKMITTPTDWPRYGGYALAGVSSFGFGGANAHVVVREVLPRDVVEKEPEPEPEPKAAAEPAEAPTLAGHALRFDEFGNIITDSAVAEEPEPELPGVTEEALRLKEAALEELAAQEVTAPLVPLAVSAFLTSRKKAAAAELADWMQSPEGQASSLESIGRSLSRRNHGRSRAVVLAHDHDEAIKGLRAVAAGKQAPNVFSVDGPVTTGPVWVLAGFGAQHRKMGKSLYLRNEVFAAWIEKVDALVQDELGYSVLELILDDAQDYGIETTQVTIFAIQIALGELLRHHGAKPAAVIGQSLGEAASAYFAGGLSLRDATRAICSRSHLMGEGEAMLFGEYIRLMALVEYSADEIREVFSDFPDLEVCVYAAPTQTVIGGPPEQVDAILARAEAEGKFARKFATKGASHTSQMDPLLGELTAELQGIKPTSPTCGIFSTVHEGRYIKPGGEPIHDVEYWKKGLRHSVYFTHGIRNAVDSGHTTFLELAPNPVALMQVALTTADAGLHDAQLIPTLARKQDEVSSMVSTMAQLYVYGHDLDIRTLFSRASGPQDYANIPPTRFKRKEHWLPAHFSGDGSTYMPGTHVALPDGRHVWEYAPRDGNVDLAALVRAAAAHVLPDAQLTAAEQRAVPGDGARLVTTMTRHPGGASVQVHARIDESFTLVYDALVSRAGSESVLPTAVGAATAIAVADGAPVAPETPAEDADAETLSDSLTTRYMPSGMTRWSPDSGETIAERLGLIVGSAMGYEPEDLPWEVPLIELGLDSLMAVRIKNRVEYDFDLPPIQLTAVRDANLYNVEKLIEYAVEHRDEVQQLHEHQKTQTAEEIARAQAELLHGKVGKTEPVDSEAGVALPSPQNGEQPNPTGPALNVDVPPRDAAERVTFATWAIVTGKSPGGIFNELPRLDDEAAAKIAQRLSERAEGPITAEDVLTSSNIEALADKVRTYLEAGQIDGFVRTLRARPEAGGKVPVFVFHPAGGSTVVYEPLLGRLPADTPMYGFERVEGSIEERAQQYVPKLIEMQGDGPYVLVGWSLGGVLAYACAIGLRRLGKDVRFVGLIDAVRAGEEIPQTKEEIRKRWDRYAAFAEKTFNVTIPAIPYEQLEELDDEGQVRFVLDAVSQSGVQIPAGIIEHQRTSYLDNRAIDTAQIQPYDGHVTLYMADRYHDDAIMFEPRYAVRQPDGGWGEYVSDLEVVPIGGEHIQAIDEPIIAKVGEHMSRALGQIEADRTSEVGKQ

Source: ChEMBL document CHEMBL3988442, “University of Dundee, Small-Polar-MMV Screening Library” (2021).

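Polyketide synthase Pks13, Mycobacterium tuberculosis (UniProt I6X8D2). Enzyme assay of the thioesterase domain of polyketide synthase 13; the read-out is not stated. Compounds at 30 µM. The record gives no direction; the compounds picked for IC50 retests had high values, so higher reads as stronger inhibition. Size under these conditions: about 67,000 compounds, about 300 of them at 50% or above in at least one test.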

The filed quantity is “Percent Effect” (%). The controls that fix the scale are not given in the record; negative values are as filed. The compounds are a random part of those screened.

* CC(=O)Nc1cccc2c1ccn2CC(=O)Nc1n[nH]c(CC(C)C)n1 | 25.73%
* CCc1[nH]c2c(CNC(=O)[C@@H]3CCCN3C)cc(C)cc2c1C | -4.27%
* CCc1noc(C(C)N2CCC(NS(=O)(=O)c3cccs3)CC2)n1 (configuration not stated) | -34.71%
* CCOc1ccc(S(=O)(=O)N(CCOC)Cc2ccncc2)cc1F | -0.5863%
* Cc1ccc(C)c(CS(=O)(=O)CC(=O)Nc2ccc(F)cc2F)c1 | -1.288%
* CCOC(=O)[C@H]1[C@@H](O)C(=O)N(C)C12CCN(C(=O)c1ccccc1)CC2 | 15.34%
* CCc1cc(NC(=O)c2cccc(OCC(F)(F)F)n2)[nH]n1 | -3.21%
* COc1ccc2c(c1)OCC(CNc1cc(N)nc(SC)n1)C2 (configuration not stated) | 15.53%
* COc1cc(C)nc(N2CCN(C(=O)c3ccccc3C)CC2)n1 | -29.32%
* N#Cc1cccn(CCOc2ccc(Cl)cc2)c1=O | 12.13%
* CSCC(C)(O)CNc1ccccn1 (configuration not stated) | -12.53%
* Cc1csc2c(C3CCN(C(=O)Cn4cncn4)CC3)nc(C)n12 | 0.4733%
* CCN1CC[C@@]2(C(=O)N3CCOCC3)CCN(S(=O)(=O)CC)CC[C@@H]12 | -47.79%
* COCC(=O)NC[C@H]1C[C@@H]2CCN1C[C@@H]2CN1CCc2ccccc2C1 | -21.51%
* COC(=O)c1cc(NCc2cscn2)ccc1C | -21.01%
* CC(C)[C@H](NC(=O)NC1CCS(=O)(=O)C1)C(=O)NCc1ccccc1 (some centres not stated) | -3.503%
* CC(c1nc(C(C)(C)C)no1)N1CCN(c2ccc(C#N)cn2)CC1 (configuration not stated) | -7.044%
* CN(Cc1nc(-c2ccccc2)c[nH]1)C(=O)NCC(=O)NC(C)(C)C | -4.585%
* Cc1cc(-c2cc3nc(C)c(C)c(NCC4COCCO4)n3n2)no1 (configuration not stated) | -0.5657%
* CC(C)C1CN(c2ncccc2Cl)CCC(=O)N1Cc1ccc(F)cc1 (configuration not stated) | -361.8%
* COc1ncc(NS(=O)(=O)c2ccc(OC)c(C)c2)c(OC)n1 | -14.87%
* Cn1ccnc1CN1C[C@@H](CN2CCCC2)[C@@H](CO)C1 | -7.459%
* Cc1cc(F)ccc1CNCCn1cccn1 | -11.65%
* COc1cc(CN(C(=O)Nc2cccnc2OC)C2CC2)ccc1O | -13.76%
* Cc1c(CN2CCC(C(=O)O)(n3ccnc3)CC2)oc2ccccc12 | -44.03%
* O=C(NCC1CC1)C1CN(C(=O)NC2CCCC2)Cc2cncn2C1 (configuration not stated) | -8.461%
* COc1ccc(-c2nnc(CNCCn3cc(C)cn3)o2)cc1 | -3.408%
* COc1ccc(NC(=O)c2cnc(N(C)C3CCCCC3)nc2N)cc1 | -11.23%
* CC(=O)N1CCN(c2cnccn2)CC(CO)C1 (configuration not stated) | 10.95%
* COCCn1ccc2c(cnc3nc(SC)nn32)c1=O | 1.221%
* COc1ccccc1-c1nccnc1C1CCN(C(C)=O)CC1 | 6.685%
* O=C1NCCN1C1CCN(CCOc2ccccc2Cl)CC1 | -15.4%
* CCc1nc(C2CCCN2Cc2cc(C)nc3ccccc23)no1 (configuration not stated) | -12.37%
* CC(C)C1CN(Cc2c[nH]cn2)CCCN1CC1CC1 (configuration not stated) | -37.12%
* Cc1ccc(C2C3=C(COC3=O)Nc3[nH]nc(C)c32)cc1C (configuration not stated) | -141.3%

Some entries from above, unchanged:

Result for Cc1csc2c(C3CCN(C(=O)Cn4cncn4)CC3)nc(C)n12 was 0.4733%.
Result for Cc1cc(-c2cc3nc(C)c(C)c(NCC4COCCO4)n3n2)no1 (configuration not stated) was -0.5657%.